Source: PubChem BioAssay AID1159584 (Peter MacCallum Cancer Centre, 2016)

Purpose: 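Genes whose loss is lethal only together with E-cadherin loss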 (primary screen)
System: human MCF10A breast epithelial cells, parental and CDH1-null
Reagents: siRNA against human genes
Read-out: 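ATP luminescence (CellTiter-Glo) viability per line relative to mean mock wells over all plates, and the ratio of CDH1-null to parental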
Direction: CDH1-null / parental viability ratio: higher = CDH1-null cells survive relatively better than parental; CDH1-null viability vs mock: higher = more viable CDH1-null cells; parental viability vs mock: higher = more viable parental cells
In all, the deposit lists about 18,000 reagents; shown is a part drawn at random. No sequences are given here. The record does not give: the amount of reagent, the time to read-out.

Target gene	CDH1-null / parental viability ratio	CDH1-null viability vs mock (fraction of mock)	parental viability vs mock (fraction of mock)
XKR9	1.52	0.94	0.62
KLF6	0.67	0.44	0.66
MAP3K11	1.02	0.53	0.52
RNF141	0.99	0.96	0.97
CFAP20DC	1.17	0.96	0.82
ZNF562	1.22	1	0.82
UBA6	1.09	0.98	0.9
DARS2	1.04	0.94	0.9
NBPF9	0.96	0.98	1.02
LIPC	0.92	0.77	0.84
ALLC	0.93	0.91	0.98
IRX5	1.21	1.19	0.98
ZNF92	1.13	1.06	0.94
MSH3	1.07	0.94	0.88
UBE4A	1	0.5	0.5
GIPC3	1.24	1.04	0.84
TMT1B	0.99	0.9	0.91
CDC23	0.85	0.66	0.78
SCLT1	0.79	0.86	1.09
MS4A8	0.8	0.7	0.88
RAB4A	1.29	1.23	0.95
ZNF627	1.09	0.99	0.91
RGS9BP	0.99	0.8	0.81
EXOC3L1	1	0.86	0.86
MALSU1	0.86	1	1.16
KRTAP21-1	1.2	0.77	0.64
PCDHB5	1.06	0.68	0.64
KDM5C	0.91	0.82	0.9
TP53TG5	0.98	0.78	0.8
RBM12	0.86	0.55	0.64
MS4A6E	0.84	0.84	1
POLR2C	2.33	0.93	0.4
DHX57	0.83	0.68	0.82
ZSWIM9	1.12	0.93	0.83
TBC1D32	0.94	1	1.06
SAP30	1.01	1.01	1
CASR	0.82	0.88	1.07
NTN5	1.3	1.16	0.89
COL1A1	1	0.94	0.94
GPATCH8	1.05	0.82	0.78
EPPIN	1.13	0.95	0.84
CAST	1.22	0.9	0.74
PIM3	0.85	0.51	0.6
MRPL13	0.82	0.77	0.94

A run of entries of the results above:
Target gene	CDH1-null / parental viability ratio	CDH1-null viability vs mock (fraction of mock)	parental viability vs mock (fraction of mock)
MALSU1	0.86	1	1.16
KRTAP21-1	1.2	0.77	0.64
PCDHB5	1.06	0.68	0.64
KDM5C	0.91	0.82	0.9
TP53TG5	0.98	0.78	0.8

Further records:
Target gene	CDH1-null / parental viability ratio	CDH1-null viability vs mock (fraction of mock)	parental viability vs mock (fraction of mock)
PCDH11X	1	0.7	0.7
OMG	1.34	0.86	0.64
PTGS2	0.85	0.82	0.96
CFAP45	0.88	0.6	0.68
DMRTA1	1.18	0.52	0.44
ADRA2A	1.38	1.1	0.8
EPHA3	0.9	0.6	0.67
PYDC1	0.87	0.78	0.9
MYBL2	1.04	0.57	0.55
SETBP1	1.37	0.85	0.62
PCDHGB2	1.33	0.93	0.7
SOX5	1.75	0.7	0.4
MRPL48	0.81	0.78	0.96
TRPC6	1.31	1.31	1
IRX3	1.31	0.68	0.52
SUSD4	1.26	0.48	0.38
CDK10	0.91	0.86	0.95
IGSF6	1.28	0.92	0.72
PPP1R21	0.84	0.52	0.62
SAMHD1	1.1	0.92	0.84
CST8	0.89	0.94	1.06
PRPF6	1.45	0.29	0.2
WTIP	1.13	0.77	0.68
GALNT18	1.2	1	0.83
